# Experimental data: PubChem BioAssay AID493014 (National Center for Advancing Translational Sciences (NCATS), 2011)
# Some of the results follow. Further columns of the screen follow, without active or inactive calls. Compounds called inactive in the main read-out are mostly missing here. Words in brackets tell the shape of the fitted curve; partial curves, single points and poor fits give uncertain potencies.
# Assay: qHTS Assay to Find Inhibitors of Chronic Active B-Cell Receptor Signaling
# Conditions: ABC-DLBCL IkBa-CBG/CBR reporter, luminescence ratio (green luciferase fused to IkBa over red control in TMD8 lymphoma cells), 4 h
# Method in brief: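 Compounds up to 46 uM were incubated four hours with TMD8 cells whose green CBG68 luciferase is fused to IkappaBalpha; red CBR luminescence normalised the signal, and concentration-effect curves were fitted to fusion, red and ratio data.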
# [1] = measured here: CBR red luminescence, cell number
# [2] = measured here: IkBa-CBG green luminescence
Structure (SMILES),AC50 [1],AC50 [2]
Cc1cc(N2CCN(C)CC2)nc2ccc(NC(=S)N3CCCCC3)cc12,"5.01 µM [falling, full curve, poor fit]",
CC1=C(C#N)c2nc(N)c(C#N)c(C)c2/C1=C\c1ccc(C)cc1,"1.41 µM [falling, partial curve, poor fit]",
CC(C)(C)c1ccc(C(=O)/C=C2\NC(=O)CS2)cc1,"0.398 µM [rising, full curve, poor fit]",
COC(=O)Nc1ccc(S(=O)(=O)Nc2ccc(O)cc2)cc1,"32.6 µM [rising, single point]",
Nc1nc(-c2ccccc2)[nH]c(=O)c1N,"25.9 µM [falling, single point]",
CCOC(=O)CCc1nc2ccccc2[nH]c1=O,"1.3 µM [rising, full curve, poor fit]",
Cc1c(Cl)cnc(NC(=O)COC(=O)c2ccc3c(c2)OCO3)c1Cl,"6.51 µM [rising, single point]",
CCC1(CC)Cc2ccccc2C(=O)N1,"1 µM [rising, single point]",
CC(C)CC(c1nnnn1Cc1cccs1)N1CCN(c2nc3ccccc3s2)CC1 (configuration not stated),"0.116 µM [falling, full curve, poor fit]",
Cc1ccccc1-c1noc(-c2ccccc2C(=O)NCc2ccco2)n1,"35.5 µM [rising, single point]",
CCOC(=O)C1=C[C@]2(CC)CCCN3CCc4c(n1c1ccccc41)[C@@H]32,"1.3 µM [rising, full curve]",
C=C(C)C(=O)N1CC2(CC(c3cccc(NC(=O)CCCCC)c3)=NO2)C[C@H]1C(N)=O (some centres not stated),"10 µM [falling, partial curve]",
CCc1c(O)nc(SCC(=O)Nc2ccccc2)n(C(C)CC)c1=O (configuration not stated),"32.6 µM [falling, single point]",
CCOC(=O)C1=NOC(Cn2cc(C(C)=O)c(=O)[nH]c2=O)C1 (configuration not stated),"1.58 µM [rising, full curve, poor fit]",
Cc1ccc(NC(=O)NCc2ccc3c(c2)OCO3)cc1,"10.3 µM [falling, partial curve]",
O=C(/C=C/c1ccc(F)cc1)c1ccc(N2CCOCC2)cc1,"2.24 µM [rising, partial curve, poor fit]",
Cc1ccc(C(=O)OCC(=O)NCc2ccco2)cc1,"4.61 µM [rising, full curve, poor fit]",
Cc1ccsc1C(=O)OCC(=O)N(C)C1CCCCC1,"25.9 µM [falling, single point]",
CC(C)C(=O)n1nc(-c2cccnc2)nc1NCc1cccs1,"15.8 µM [falling, partial curve]",
Cc1ccc(/C=C/C(=O)OCC(=O)NCCc2ccc(S(N)(=O)=O)cc2)o1,"29.1 µM [rising, single point]",
CCOCCCNC(=O)c1cc2c(=O)n3cccc(C)c3nc2n1C,"0.082 µM [rising, full curve, poor fit]",
O=C(COc1ccc(Br)cc1CNC1CCCCC1)NCCc1ccccc1,"35.5 µM [falling, single point]",

Structure (SMILES),AC50 [1],AC50 [2]
COc1cccc2sc(N(CCCN(C)C)C(=O)c3sc4ccccc4c3Cl)nc12,"18.4 µM [falling, single point]",
O=C(Nc1ccc(F)cc1)c1ccccc1,"8.2 µM [falling, partial curve, poor fit]",
Cc1cc(C(=O)COc2ccccc2Cl)c(C)n1C1CC1,"0.13 µM [rising, full curve, poor fit]",
CCOC(=O)N1CCN(S(=O)(=O)c2ccc3c(c2)OCC(=O)N3)CC1,"2.82 µM [falling, partial curve, poor fit]",
COC(=O)[C@H](CC(C)C)NC(=O)NCCCc1ccccc1,"18.4 µM [rising, partial curve, poor fit]",
Cc1cnc(NC(=O)c2ccc3c(c2)C(=O)N(Cc2ccco2)C3=O)s1,"35.5 µM [falling, single point]",
COC(=O)C1=C(C)N(C)C(=O)NC1c1ccc([N+](=O)[O-])o1 (configuration not stated),"11.2 µM [rising, partial curve, poor fit]",
Cc1cc(NC(=O)CCCSc2nc(-c3ccco3)cc(C(F)(F)F)n2)n(-c2ccccc2)n1,"29.1 µM [falling, single point]",
O=C(CCC1COc2ccccc2O1)Nc1cccnc1 (configuration not stated),"2.59 µM [rising, partial curve, poor fit]",
O=C(/C=C/NNC(=O)c1cccc(Br)c1)c1ccccc1,"23.1 µM [falling, single point]",
COc1cccc2cc(C(=O)Nc3ccccc3C(=O)N3CCOCC3)oc12,"4.47 µM [falling, partial curve]",
O=C(CCN1C(=O)/C(=C/c2cccs2)SC1=S)Nc1ccccn1,"2.51 µM [falling, partial curve]",
Cc1ccc(Cl)c(OCC(=O)NCc2ccco2)c1,"0.82 µM [rising, full curve, poor fit]",
CCCOc1ccc2c(c1)C(=NN=C(N)N)c1cc(OCCC)ccc1-2,"35.5 µM [falling, single point]","22.4 µM [rising, partial curve, poor fit]"
Cc1nc2cc(NCc3ccccc3O)ccc2n1Cc1ccccc1,"3.98 µM [falling, full curve, poor fit]",
CC[C@H]1CN2CCc3cc(OC)c(OC)cc3C2C[C@@H]1C[C@H]1NCCc2cc(OC)c(OC)cc21 (some centres not stated),"0.164 µM [falling, full curve, poor fit]",
O=C(CN1C(=O)c2ccccc2C1=O)c1ccccc1,"0.116 µM [falling, full curve, poor fit]",
CSc1nc2sc(-c3ccccc3)cc2c(=O)n1N,"0.447 µM [rising, full curve, poor fit]",
CCOC(=O)C1CCN(C(=O)/C=C/c2ccccc2)CC1,"11.2 µM [falling, partial curve]",
O=C1NC(=Nc2ccc(O)cc2)S/C1=C/c1ccco1,"3.98 µM [falling, partial curve]",
N/C(=N\OC(=O)c1cccs1)c1ccc(Cl)cc1,"5.01 µM [rising, partial curve, poor fit]",
COc1ccccc1CN(C)CC(=O)Nc1ccc(Cl)cc1C(F)(F)F,"0.00411 µM [rising, full curve, poor fit]",

# Some of the entries so far, with tabs.
Structure (SMILES)	AC50 [1]	AC50 [2]
COC(=O)[C@H](CC(C)C)NC(=O)NCCCc1ccccc1	18.4 µM [rising, partial curve, poor fit]	
Cc1cnc(NC(=O)c2ccc3c(c2)C(=O)N(Cc2ccco2)C3=O)s1	35.5 µM [falling, single point]	
COC(=O)C1=C(C)N(C)C(=O)NC1c1ccc([N+](=O)[O-])o1 (configuration not stated)	11.2 µM [rising, partial curve, poor fit]	

# Remaining list, next part

Structure (SMILES),AC50 [1],AC50 [2]
COc1ccccc1CCC(=O)Nc1ccc2c(c1)CN(Cc1ccc(CO)o1)CC2,"10 µM [falling, partial curve, poor fit]",
CCOC(=O)c1c(C)[nH]c(C(=O)COC(=O)C(C)N2C(=O)C3CCCCC3C2=O)c1C (configuration not stated),"17.8 µM [falling, single point]",
CCOC(CCn1c(SCc2cccc([N+](=O)[O-])c2)nc2ccccc2c1=O)OCC,"16.4 µM [rising, partial curve, poor fit]",
Cc1nc(N=C(N)N)nc2c(C)cccc12,"10 µM [falling, partial curve]",
CCNc1nc(N)c(C(=O)c2ccc(Cl)s2)s1,"1.16 µM [falling, full curve, poor fit]","3.66 µM [rising, partial curve, poor fit]"
O=C(NCc1cccs1)c1cccnc1SCCS(=O)(=O)c1ccc(C(F)(F)F)cn1,"10 µM [falling, partial curve, poor fit]",
CCC(=O)NC(=S)Nc1ccc(NC(=O)c2ccc([N+](=O)[O-])cc2)cc1,"0.00517 µM [rising, full curve, poor fit]",
CC1=C(C(N)=O)C(c2cccs2)n2nc(-c3cccc(Cl)c3)nc2N1 (configuration not stated),"1.41 µM [falling, full curve]",
CCC(C)(C)C1CCc2[nH]nc(C(=O)NC3CCCC3)c2C1 (configuration not stated),"5.17 µM [rising, single point]",
CC(Sc1nnc(Cc2cccs2)n1C)C(=O)Nc1ccc(C(N)=O)cc1 (configuration not stated),"23.1 µM [rising, single point]",
COc1ccc(OC)c(NC(=O)C(C)Oc2ccc(Br)cc2)c1 (configuration not stated),,"14.1 µM [rising, partial curve, poor fit]"
O=C(CCSCc1ccc(Cl)cc1)NCc1ccc(F)cc1Cl,"2.51 µM [falling, partial curve]",
CCn1cc(C(=O)O)c(=O)c2cnc(N3CCN(C(=S)NC(=O)c4ccc(OC)cc4)CC3)nc21,"0.355 µM [rising, full curve, poor fit]",
CN1C(=O)C(O)(C2COC(C)(C)CC2=O)c2cc(Br)ccc21 (configuration not stated),"20.6 µM [rising, single point]","20.6 µM [falling, single point]"
O=C(NC1CCCC1)C(c1c[nH]c2ccccc12)N(C(=O)Cn1nnc(-c2ccc(Cl)cc2)n1)c1ccccc1 (configuration not stated),"2 µM [falling, full curve]",
CC(=O)c1csc(COc2ccc(Cl)cc2)n1,"2.24 µM [falling, full curve]",
N/C(=N\OC(=O)C12CC3CC(CC(C3)C1)C2)c1ccccn1,"2.59 µM [rising, full curve]",
O=C(Nc1nc(-c2ccc(-c3ccccc3)cc2)cs1)C1CCCO1 (configuration not stated),"5.17 µM [falling, partial curve]",
CC(=O)NS(=O)(=O)c1ccc(NC(=O)CSc2ccccc2)cc1,"35.5 µM [rising, single point]",
CC(C)(C)NC(=O)CSc1ncnc2c1nnn2Cc1ccccc1Cl,"10 µM [falling, partial curve, poor fit]",
